Data reported in PubChem BioAssay AID2517 (National Center for Advancing Translational Sciences (NCATS), 2010).
Hit rate of the full screen: of about 350,000 compounds, about 1,200 (0.34%) were called active. Inconclusive results, whose numbers are uncertain, are shown with a selection of clear calls. Calls follow the shape of the dose curve; as a rule, active = well fitted inhibition curve with a large enough effect; inconclusive = small, poorly fitted or top-dose-only effect; inactive = no such curve, though single readings can be large or run the other way. Potencies beside an inconclusive call are fits to weak or partial responses and may not hold up.

Sequences of proteins named here, by UniProt entry; tags and fusion partners are left off.
UniProt P27695, whole entry, looked up: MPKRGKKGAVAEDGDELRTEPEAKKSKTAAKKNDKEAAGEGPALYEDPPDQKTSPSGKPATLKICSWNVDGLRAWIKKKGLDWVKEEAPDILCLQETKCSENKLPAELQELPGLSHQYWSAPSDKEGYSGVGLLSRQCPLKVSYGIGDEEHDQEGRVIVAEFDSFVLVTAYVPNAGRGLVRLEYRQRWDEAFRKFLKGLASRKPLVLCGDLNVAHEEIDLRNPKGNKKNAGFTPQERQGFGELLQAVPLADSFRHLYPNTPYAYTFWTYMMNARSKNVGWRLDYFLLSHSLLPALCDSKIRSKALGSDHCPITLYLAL

The molecules below were run against DNA repair nuclease/redox regulator APEX1 (Homo sapiens) (UniProt P27695) (assay: qHTS Assay for Inhibitors of the Human Apurinic/apyrimidinic Endonuclease 1 (APE1)). Conditions: recombinant APE1, TAMRA/BHQ-2 abasic DNA cleavage fluorescence; activity change, negative = inhibition: at 65.8 µM (top of the series).
Summary of the method: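 Quantitative HTS: incision of a TAMRA/BHQ-2 double-stranded substrate bearing a tetrahydrofuran abasic site by 0.75 nM APE1 raises fluorescence. Substrate 50 nM final, added after 15 min compound preincubation at room temperature; progress as third-minus-first kinetic read difference.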
Also: nearly all actives have a fitted effect of over 55% in size.
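For activity change, negative = inhibition in this document: plate controls were vehicle for no effect and reference inhibitor for full effect.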
Potency is read from the fitted curve at half-maximal effect.

Row | Compound | Potency | activity change, negative = inhibition
1 | O=C(O)CN1C(=O)/C(=C/c2ccc(SCc3ccccc3)o2)SC1=S | active: 28.2 µM | –
2 | O=C(NCc1ccccc1)c1ccc(S(=O)(=O)Nc2cccc(C(F)(F)F)c2)cc1 | inconclusive: 1.78 µM [inhibitor, partial curve, poor fit] | –
3 | N/C(=N\N=C/c1ccc(Br)cc1)N/N=C\c1ccc(Br)cc1 | inconclusive: 44.7 µM [inhibitor, partial curve, poor fit] | –
4 | CN(C)CCNc1c2c(c(C#N)c3nc4ccccc4n13)CCCC2 | inconclusive: 28.2 µM [inhibitor, single point] | –
5 | CCCNc1sc(S(=O)(=O)CCC)nc1S(=O)(=O)c1ccc(C)cc1 | inconclusive: 44.7 µM [inhibitor, single point] | –
6 | O=C(Oc1ccc([N+](=O)[O-])cc1)C1CC(=O)N(c2ccc3c(c2)OCCO3)C1 (centres undefined) | inconclusive: 15 µM [inhibitor, partial curve] | –
7 | Cc1cccc(C)c1NC(=S)N/N=C/c1ccc(C(=O)O)cc1 | inconclusive: 3.16 µM [inhibitor, full curve, poor fit] | –
8 | Oc1cc(-c2ccc(N3CCCCC3)nc2)cc2cccnc12 | inactive | –
9 | COc1ccc(S(=O)(=O)Nc2ccc(-n3cccc3)cc2)cc1 | inconclusive: 3.16 µM [inhibitor, full curve, poor fit] | –
10 | COc1cc(C(CCN2CCN(c3ccccc3)CC2)c2c(OC)cc(OC)c3c(C)cc(=O)oc23)cc(OC)c1OC (centres undefined) | inconclusive: 3.55 µM [inhibitor, single point] | –
11 | CC1=C(C(=O)Nc2ccccc2C(F)(F)F)C(c2ccc(C)s2)NC(=S)N1 (centres undefined) | – | inactive: 5.38%
12 | CCCCNC(=O)c1ccccc1NC(=O)CN(c1ccccc1)S(=O)(=O)N(C)C | inconclusive: 17.8 µM [inhibitor, single point] | –
13 | Cc1nc(C)c(/C(O)=C\c2nc3ccc([N+](=O)[O-])cc3oc2=O)o1 | – | inactive: -9.53%
14 | COc1ccc(S(=O)(=O)N(CC(=O)O)c2ccccn2)cc1 | inconclusive: 3.55 µM [inhibitor, single point] | –
15 | COc1ccc(S(=O)(=O)Nc2ccc(O)c(Sc3ncn[nH]3)c2)cc1 | inconclusive: 22.4 µM [inhibitor, partial curve] | –
16 | C#CCOCCOCCOCCNc1nc(N2CCN(C(=O)[C@H]([C@@H](C)CC)n3cc(CCCCN)nn3)CC2)nc(N2CCN(C(=O)[C@H](C)n3cc(CCC(=O)O)nn3)CC2)n1 | inconclusive: 3.98 µM [inhibitor, single point] | –
17 | O=C(O)c1cc(-c2ccc3c(c2)OCO3)nc2ccc(Br)cc12 | inconclusive: 35.5 µM [inhibitor, single point] | –
18 | O=C1NC(=Nc2ccc(O)cc2)S/C1=C\C=C\c1ccco1 | inconclusive: 39.8 µM [inhibitor, single point] | –
19 | COc1ccc(C(=O)NCC2CCCO2)cc1 (centres undefined) | inconclusive: 2 µM [inhibitor, full curve, poor fit] | –
20 | O=C(O)C1Nc2c(Cl)cc(Cl)cc2C2C=CCC12 (centres undefined) | active: 13.4 µM | –
21 | COC(=O)c1ccccc1NC(=O)CNc1ccc(F)c(S(=O)(=O)N2CCOCC2)c1 | inconclusive: 15 µM [inhibitor, partial curve] | –
22 | O=C(COC(=O)c1cc(-c2ccccc2Cl)nc2ccccc12)Nc1ncc(C(F)(F)F)cc1Cl | inconclusive: 31.6 µM [inhibitor, single point] | –

Row | Compound | Potency | activity change, negative = inhibition
23 | CC1Cc2ccccc2N1S(=O)(=O)c1c(N)n(C)c(=O)n(C)c1=O (centres undefined) | inconclusive: 44.7 µM [inhibitor, single point] | –
24 | CC1CCN(S(=O)(=O)c2ccc(NC(=O)Cc3cccs3)cc2)CC1 | inconclusive: 20 µM [inhibitor, single point] | –
25 | O=C(Nc1cccc([N+](=O)[O-])c1)Nc1cccs1 | inconclusive: 15.8 µM [inhibitor, partial curve] | –
26 | CCSC1=NN2CCS(=O)(=O)N=C2S1 | – | inactive: 0.56%
27 | Cc1cc(OCC(F)(F)C(F)(F)C(F)(F)C(F)(F)C(F)(F)C(F)F)nc(N)n1 | – | inactive: 2.33%
28 | O=C(Nc1ccccc1C(F)(F)F)N1CCN(c2ccccn2)CC1 | inconclusive: 5.01 µM [inhibitor, single point] | –
29 | CC1(C(=O)NCc2ccccn2)C=CCN1C(=O)c1ccccc1 (centres undefined) | inconclusive: 4.47 µM [inhibitor, single point] | –
30 | COc1ccc(S(=O)(=O)NCCSCc2ccco2)cc1Cl | inconclusive: 44.7 µM [inhibitor, single point] | –
31 | COC(=O)c1ccc(NC(=O)C(=O)c2cccn2C)cc1 | – | inactive: -4.61%
32 | CCOc1ncccc1C(=O)Nc1ccc(S(=O)(=O)NC2=NCCCCC2)cc1 | inconclusive: 10 µM [inhibitor, single point] | –
33 | CCOc1ccc(N(CC(=O)NCCC2=CCCCC2)S(=O)(=O)c2ccccc2)cc1 | inconclusive: 6.31 µM [inhibitor, full curve] | –
34 | CCOC(=O)c1c(-c2ccc(C)o2)csc1NC(=O)CSc1nnnn1-c1ccccc1 | – | inactive: -9.22%
35 | C#CCOCCOCCOCCNc1nc(N2CCN(C(=O)CCCCCCCCCCNC(=O)Cn3cc(CCCCCN)nn3)CC2)nc(N2CCN(C(=O)CCCCCCCCCCNC(=O)[C@H](CO)n3cc(CCCSC)nn3)CC2)n1 | inconclusive: 37.7 µM [inhibitor, single point] | –
36 | Cc1ccc(S(=O)(=O)C2(C(=O)N3CCCCC3C)CC2)cc1 (centres undefined) | inconclusive: 44.7 µM [inhibitor, single point] | –
37 | O=C(Nc1ccccc1-c1ccccc1)C(=O)Nc1ccccc1-c1ccccc1 | inconclusive: 0.282 µM [inhibitor, full curve, poor fit] | –
38 | CSc1nnc(SC)nn1 | – | inactive: 1.06%
39 | N#CC1(Cc2ccc(Cl)cc2)c2ccccc2C=CN1C(=O)c1ccccc1 (centres undefined) | inconclusive: 3.55 µM [inhibitor, single point] | –
40 | Cc1ccc(-c2nc(SCC(=O)NCCN3C(=O)CSC3=O)[nH]c2-c2ccc(C)cc2)cc1 | inconclusive: 44.7 µM [inhibitor, single point] | –
41 | N#CC1=C(N)C(C#N)(C#N)[C@H](c2c(F)cccc2F)[C@H]2CC3(CC=C12)OCCO3 | inconclusive: 39.8 µM [inhibitor, single point] | –
42 | Cc1ccnc(NS(=O)(=O)c2ccc(NC(=O)Cc3cccs3)cc2)n1 | inconclusive: 28.2 µM [inhibitor, single point] | –
43 | FC(F)(F)c1nc2ccccc2nc1N/N=C/c1ccc(Cl)cc1 | inconclusive: 0.355 µM [inhibitor, full curve, poor fit] | –
44 | CC1=C(C(=O)OC(C)C)C(c2cccnc2)C2=C(CCCC2=O)N1 (centres undefined) | inconclusive: 1.78 µM [inhibitor, full curve] | –

13 of these compounds, reformatted:
Row	Compound	Potency	activity change, negative = inhibition
23	CC1Cc2ccccc2N1S(=O)(=O)c1c(N)n(C)c(=O)n(C)c1=O (centres undefined)	inconclusive: 44.7 µM [inhibitor, single point]	–
26	CCSC1=NN2CCS(=O)(=O)N=C2S1	–	inactive: 0.56%
29	CC1(C(=O)NCc2ccccn2)C=CCN1C(=O)c1ccccc1 (centres undefined)	inconclusive: 4.47 µM [inhibitor, single point]	–
30	COc1ccc(S(=O)(=O)NCCSCc2ccco2)cc1Cl	inconclusive: 44.7 µM [inhibitor, single point]	–
31	COC(=O)c1ccc(NC(=O)C(=O)c2cccn2C)cc1	–	inactive: -4.61%
32	CCOc1ncccc1C(=O)Nc1ccc(S(=O)(=O)NC2=NCCCCC2)cc1	inconclusive: 10 µM [inhibitor, single point]	–
33	CCOc1ccc(N(CC(=O)NCCC2=CCCCC2)S(=O)(=O)c2ccccc2)cc1	inconclusive: 6.31 µM [inhibitor, full curve]	–
34	CCOC(=O)c1c(-c2ccc(C)o2)csc1NC(=O)CSc1nnnn1-c1ccccc1	–	inactive: -9.22%
35	C#CCOCCOCCOCCNc1nc(N2CCN(C(=O)CCCCCCCCCCNC(=O)Cn3cc(CCCCCN)nn3)CC2)nc(N2CCN(C(=O)CCCCCCCCCCNC(=O)[C@H](CO)n3cc(CCCSC)nn3)CC2)n1	inconclusive: 37.7 µM [inhibitor, single point]	–
36	Cc1ccc(S(=O)(=O)C2(C(=O)N3CCCCC3C)CC2)cc1 (centres undefined)	inconclusive: 44.7 µM [inhibitor, single point]	–
39	N#CC1(Cc2ccc(Cl)cc2)c2ccccc2C=CN1C(=O)c1ccccc1 (centres undefined)	inconclusive: 3.55 µM [inhibitor, single point]	–
41	N#CC1=C(N)C(C#N)(C#N)[C@H](c2c(F)cccc2F)[C@H]2CC3(CC=C12)OCCO3	inconclusive: 39.8 µM [inhibitor, single point]	–
43	FC(F)(F)c1nc2ccccc2nc1N/N=C/c1ccc(Cl)cc1	inconclusive: 0.355 µM [inhibitor, full curve, poor fit]	–

The list continues:

Row | Compound | Potency | activity change, negative = inhibition
45 | O=C(N/N=C\c1ccc(Sc2ccccn2)o1)c1cccc(Br)c1 | – | inactive: 10.1%
46 | Cc1noc(C)c1COc1ccc(C(=O)OCC(=O)Nc2ccc3c(c2)OCO3)cc1 | inconclusive: 7.94 µM [inhibitor, full curve, poor fit] | –
47 | COc1ccc(F)c(C2C(C#N)=C(N)Oc3n[nH]c(C(C)(C)C)c32)c1 (centres undefined) | inconclusive: 5.62 µM [inhibitor, single point] | –
48 | Nc1ccc2c(c1)C/C(=C/c1ccco1)C2=O | inconclusive: 28.2 µM [inhibitor, single point] | –
49 | COc1ccc(OC)c(CNC(=O)C2CCN(S(=O)(=O)N3CCCC3)CC2)c1 | inconclusive: 44.7 µM [inhibitor, single point] | –
50 | COc1ccc(OC)c(/C(C)=N/Nc2ccc(C(=O)O)cc2)c1 | active: 28.2 µM | –
51 | C=C1C=C(C(F)F)n2ncc(C(=O)Nc3ccccc3OCC)c2N1 | – | inactive: 58.4%
52 | COc1ccc(Cl)cc1N/C(N)=N/c1nc(CSc2ccc(C)cc2)cc(=O)[nH]1 | inconclusive: 3.55 µM [inhibitor, single point] | –
53 | CCOCCOC(=O)C(C)Oc1ccc(Oc2ncc(C(F)(F)F)cc2Cl)cc1 (centres undefined) | inconclusive: 39.8 µM [inhibitor, single point] | –
54 | O=C(O)c1cc(C(=O)O)cc(-c2ccc(/C=c3/sc4nc5ccccc5n4c3=O)o2)c1 | active: 28.2 µM | –
55 | Cc1cc(C=C2C(=O)c3ccccc3C2=O)c(C)n1-c1ccc(C(=O)O)cc1 | inconclusive: 44.7 µM [inhibitor, single point] | –
56 | CC(Cc1c[nH]c2ccccc12)C(=O)O (centres undefined) | inconclusive: 2 µM [inhibitor, full curve] | –
57 | O=C(COc1ccc(Br)cc1Br)NC1CCCC1 | inconclusive: 2.82 µM [inhibitor, full curve] | –
58 | Cc1ccc2nc(NC(=O)C3CCCN(S(=O)(=O)c4cnc[nH]4)C3)sc2c1 (centres undefined) | inconclusive: 3.16 µM [inhibitor, single point] | –
59 | CCOC(=O)c1ccc(NC(=S)N(CCCN2CCN(CC)CC2)Cc2cccs2)cc1 | – | inactive: 3.33%
60 | COC(=O)c1ccc(CO/N=C/c2ccc(OC)cc2)o1 | inconclusive: 0.501 µM [inhibitor, full curve, poor fit] | –
61 | Cc1oc(-c2ccc(Cl)cc2)cc1-c1nn2c(-c3ccco3)nnc2s1 | inconclusive: 31.6 µM [inhibitor, single point] | –
62 | CC1CCC2(CC1)NC(=S)N(C(C)(C)C)N2 (centres undefined) | inconclusive: 6.31 µM [inhibitor, single point] | –
63 | Cc1cccc(C)c1NC(=O)COC(=O)C1Cc2ccccc2CN1C(=O)c1ccccc1 (centres undefined) | inconclusive: 39.8 µM [inhibitor, single point] | –
64 | Cc1ccc(-c2nc(N)sc2CC(=O)OCC(=O)NCCC(C)C)cc1 | inconclusive: 25.1 µM [inhibitor, single point] | –
